The values below come from PubChem BioAssay AID190 (DTP/NCI, 2004).

The list is a part of this screen's results and no random one: it covers a few groups of compounds. Not every dose and run of a compound is shown. T/C is the treated group as % of the vehicle group. Some entries give survivors of the animals treated and no T/C: the source files T/C as zero there, which appears to mark a toxic dose or a test without result, not a measured value. Counts of survivors are from the toxicity check (mostly the fifth day) where no day follows; animals may have died later. Schedule codes are those of the source, taken here to give the interval after Q, in days (D) or hours (H), and the number of doses after X. Where survival is the endpoint, this PubChem deposit counts one and a half times the control or more as active, and values a quarter to a half above the control carry no call in these data; other NCI protocols may use other cut-offs. Some T/C values carry the count of animals alive at the toxicity check (mostly the fifth day); without a count or a note in brackets, all were alive then.

The subject of this test is AKR/Lw mice, AKR lymphoma ip, median survival T/C. Kind of test: NCI In Vivo Anticancer Drug Screen. Data for tumor model Lymphoma AKR (Transplanted) (intraperitoneal) in AKR/Lw mice. The note with it: T/C endpoint: median survival time, schedule: Q01DX001 (ip), vehicle: saline, higher T/C = longer survival. The method, then:
The antitumor activity of compounds was measured in mice bearing transplantable tumors. Survival or tumor size were measured and the results are expressed as the measurement made in the treated group (T) divided by the measurement made in the vehicle treated control group (C). The tumor model used in this assay is Lymphoma AKR (Transplanted) (intraperitoneal) in AKR/Lw mice

In the case of `C[N+]1(Cc2ccccc2)CC12CCCCC2` (configuration not stated), for the setting “dose: 50.0 mg/kg/injection”, the T/C is 88 % of control [8 of 10 alive]. The survivor count is listed as 1 of 10 (dose: 100.0 mg/kg/injection) and 0 of 10 (dose: 200.0 mg/kg/injection).
As for `CC(C)c1nc(Nc2ccccc2)n(P(=O)(N(C)C)N(C)C)n1`, the T/C is, setting by setting: (dose: 1.5 mg/kg/injection) 97 % of control; (dose: 3.0 mg/kg/injection) 100 % of control; (dose: 6.0 mg/kg/injection) 94 % of control.
Turning to `CC1(Cc2ccccc2)C[N+]12CCCCC2` (configuration not stated), the T/C was 100 % of control (dose: 12.5 mg/kg/injection), 100 % of control (dose: 25.0 mg/kg/injection) and 94 % of control (dose: 50.0 mg/kg/injection).
Turning to `CN(C)P(=O)(N(C)C)n1c(Nc2ccccc2)nnc1-c1ccccc1`, the T/C by setting is: (dose: 0.75 mg/kg/injection) 94 % of control; (dose: 1.5 mg/kg/injection) 100 % of control; (dose: 3.0 mg/kg/injection) 97 % of control.
